# Data from the supplement of paper PMC4604168 (melanoma cell lines).
# This is one part of the list. Many values rest on one well or one pass, so single values are uncertain.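 Imaging used 1,536-well plates; nuclei positive for cleaved PARP by antibody were divided by total DNA-stained nuclei to yield the apoptosis fraction. Doses for screening kept most cells viable, and cell lines differ markedly in resting and induced cleaved-PARP levels.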
# Tested on: SkMel2
# Test: cleaved PARP positive nuclei fraction relative to DMSO control; melanoma cells; higher = more apoptosis
# Conditions: library dose: low library concentration; 72 h
row,Structure (SMILES),cleaved PARP positive nuclei fraction [%]
1,"Cn1nnc2c(C(N)=O)ncn2c1=O [temozolomide] + C[C@@H]1CCN(C(=O)CC#N)C[C@@H]1N(C)c1ncnc2[nH]ccc12 [CP690550] (first compound 2 µM, partner dose 1 µM)",109
2,"Cc1nc(Nc2ncc(C(=O)Nc3c(C)cccc3Cl)s2)cc(N2CCN(CCO)CC2)n1 [dasatanib] + Cn1nnc2c(C(N)=O)ncn2c1=O [temozolomide] (first compound 0.004 µM, partner dose 2 µM)",72.8
3,"OCc1c[nH]c2ccccc12 [Indole-3-carbinol] + COCC[n+]1c2c(n(Cc3cnccn3)c1C)C(=O)c1ccccc1C2=O [YM155] (first compound 0.8 µM, partner dose 0.0004 µM)",185
4,"Clc1ccc(Nc2nnc(Cc3ccncc3)c3ccccc23)cc1 [vatalanib] + C=CCn1c(=O)c2cnc(Nc3ccc(N4CCN(C)CC4)cc3)nc2n1-c1cccc(C(C)(C)O)n1 [MK1775] (first compound 2 µM, partner dose 0.02 µM)",95.8
5,"C#Cc1cccc(Nc2ncnc3cc(OCCOC)c(OCCOC)cc23)c1 [erlotinib] + COCC[n+]1c2c(n(Cc3cnccn3)c1C)C(=O)c1ccccc1C2=O [YM155] (first compound 0.8 µM, partner dose 0.0004 µM)",158
6,"Cc1nc(Nc2ncc(C(=O)Nc3c(C)cccc3Cl)s2)cc(N2CCN(CCO)CC2)n1 [dasatanib] + Cn1c(Nc2ccc(C(F)(F)F)cc2)nc2cc(Oc3ccnc(-c4ncc(C(F)(F)F)[nH]4)c3)ccc21 [CHIR265] (first compound 0.004 µM, partner dose 0.08 µM)",79.1
